Results are given in words; binding and its absence hold for the method and conditions named. For part of these data: In cells and extracts the contact can be indirect. Some binding calls cover weakened binding; strength is not graded here.

Amino acid sequences for entries named in this document (tags omitted). Residues count along the entry.
UniProt P30904, residues 2-115: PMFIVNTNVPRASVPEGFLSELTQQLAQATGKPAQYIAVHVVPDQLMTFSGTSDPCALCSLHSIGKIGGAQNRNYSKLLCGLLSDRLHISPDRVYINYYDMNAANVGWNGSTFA

In assay [1] the target is rat macrophage migration inhibitory factor (MIF) (rat) (UniProt P30904). As to the kind of experiment: restatement of the co-immunoprecipitation result from rat intraluminal fluid.
Assay [2] has the same target. The assay can be described thus: immunoprecipitation of rat intraluminal fluid with anti-MIF, Western blot for α-1-I-3 (reducing NuPAGE).
For assay [3], the target named is T1, human macrophage migration inhibitory factor (MIF) (human) (UniProt P14174).
T1 sequence (looked up): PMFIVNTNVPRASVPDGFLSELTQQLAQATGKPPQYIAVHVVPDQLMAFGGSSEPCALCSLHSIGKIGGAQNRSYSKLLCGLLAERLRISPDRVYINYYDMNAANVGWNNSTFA
The assay can be described thus: co-immunoprecipitation from human urine with anti-MIF, Western blot for ceruloplasmin (bands of 135 and 64 kDa).

B1: alpha-1-inhibitor-3 (α-1-I-3) (protein, rat, UniProt P14046 25-1477, looked up)
chain: LNGNSKYMVLVPSQLYTETPEKICLHLYHLNETVTVTASLISQRGTRKLFDELVVDKDLFHCVSFTIPRLPSSEEEESLDINIEGAKHKFSERRVVLVKNKESVVFVQTDKPMYKPGQSVKFRVVSMDKNLHPLNELFPLAYIEDPKMNRIMQWQDVKTENGLKQLSFSLSAEPIQGPYKIVILKQSGVKEEHSFTVMEFVLPRFGVDVKVPNAISVYDEIINVTACATYTYGKPVPGHVKISLCHGNPTFSSETKSGCKEEDSRLDNNGCSTQEVNITEFQLKENYLKMHQAFHVNATVTEEGTGSEFSGSGRIEVERTRNKFLFLKADSHFRHGIPFFVKVRLVDIKGDPIPNEQVLIKARDAGYTNATTTDQHGLAKFSIDTNGISDYSLNIKVYHKEESSCIHSSCTAERHAEAHHTAYAVYSLSKSYIYLDTEAGVLPCNQIHTVQAHFILKGQVLGVLQQIVFHYLVMAQGSILQTGNHTHQVEPGESQVQGNFALEIPVEFSMVPVAKMLIYTILPDGEVIADSVKFQVEKCLRNKVHLSFSPSQSLPASQTHMRVTASPQSLCGLRAVDQSVLLQKPEAELSPSLIYDLPGMQDSNFIASSNDPFEDEDYCLMYQPIAREKDVYRYVRETGLMAFTNLKIKLPTYCNTDYDMVPLAVPAVALDSSTDRGMYESLPVVAVKSPLPQEPPRKDPPPKDPVIETIRNYFPETWIWDLVTVNSSGVTELEMTVPDTITEWKAGALCLSNDTGLGLSSVASFQAFQPFFVELTMPYSVIRGEAFTLKATVLNYLPTSLPMAVLLEASPDFTAVPVENNQDSYCLGANGRHTSSWLVTPKSLGNVNFSVSAEARQSPGPCGSEVATVPETGRKDTVVKVLIVEPEGIKKEHTFSSLLCASDAELSETLSLLLPPTVVKDSARAHFSVMGDILSSAIKNTQNLIQMPYGCGEQNMVLFAPNIYVLKYLNETQQLTEKIKSKALGYLRAGYQRELNYKHKDGSYSAFGDHNGQGQGNTWLTAFVLKSFAQARAFIFIDESHITDAFTWLSKQQKDSGCFRSSGSLLNNAMKGGVDDEITLSAYITMALLESSLPDTDPVVSKALSCLESSWENIEQGGNGSFVYTKALMAYAFALAGNQEKRNEILKSLDKEAIKEDNSIHWERPQKPTKSEGYLYTPQASSAEVEMSAYVVLARLTAQPAPSPEDLALSMGTIKWLTKQQNSYGGFSSTQDTVVALDALSKYGAATFSKSQKTPSVTVQSSGSFSQKFQVDKSNRLLLQQVSLPYIPGNYTVSVSGEGCVYAQTTLRYNVPLEKQQPAFALKVQTVPLTCNNPKGQNSFQISLEISYMGSRPASNMVIADVKMLSGFIPLKPTVKKLERLGHVSRTEVTTNNVLLYLDQVTNQTLSFSFIIQQDIPVKNLQPAIVKVYDYYETDEVAFAEYSSPCSSDDQNV
Consider B1, for which the binding entry in assay [1] and in assay [2] was “binds” in each case.

B2: Ceruloplasmin (protein, human, UniProt P00450 20-1065, looked up)
chain: KEKHYYIGIIETTWDYASDHGEKKLISVDTEHSNIYLQNGPDRIGRLYKKALYLQYTDETFRTTIEKPVWLGFLGPIIKAETGDKVYVHLKNLASRPYTFHSHGITYYKEHEGAIYPDNTTDFQRADDKVYPGEQYTYMLLATEEQSPGEGDGNCVTRIYHSHIDAPKDIASGLIGPLIICKKDSLDKEKEKHIDREFVVMFSVVDENFSWYLEDNIKTYCSEPEKVDKDNEDFQESNRMYSVNGYTFGSLPGLSMCAEDRVKWYLFGMGNEVDVHAAFFHGQALTNKNYRIDTINLFPATLFDAYMVAQNPGEWMLSCQNLNHLKAGLQAFFQVQECNKSSSKDNIRGKHVRHYYIAAEEIIWNYAPSGIDIFTKENLTAPGSDSAVFFEQGTTRIGGSYKKLVYREYTDASFTNRKERGPEEEHLGILGPVIWAEVGDTIRVTFHNKGAYPLSIEPIGVRFNKNNEGTYYSPNYNPQSRSVPPSASHVAPTETFTYEWTVPKEVGPTNADPVCLAKMYYSAVEPTKDIFTGLIGPMKICKKGSLHANGRQKDVDKEFYLFPTVFDENESLLLEDNIRMFTTAPDQVDKEDEDFQESNKMHSMNGFMYGNQPGLTMCKGDSVVWYLFSAGNEADVHGIYFSGNTYLWRGERRDTANLFPQTSLTLHMWPDTEGTFNVECLTTDHYTGGMKQKYTVNQCRRQSEDSTFYLGERTYYIAAVEVEWDYSPQREWEKELHHLQEQNVSNAFLDKGEFYIGSKYKKVVYRQYTDSTFRVPVERKAEEEHLGILGPQLHADVGDKVKIIFKNMATRPYSIHAHGVQTESSTVTPTLPGETLTYVWKIPERSGAGTEDSACIPWAYYSTVDQVKDLYSGLIGPLIVCRRPYLKVFNPRRKLEFALLFLVFDENESWYLDDNIKTYSDHPEKVNKDDEEFIESNKMHAINGRMFGNLQGLTMHVGDEVNWYLMGMGNEIDLHTVHFHGHSFQYKHRGVYSSDVFDIFPGTYQTLEMFPRTPGIWLLHCHVTDHIHAGMETTYTVLQNEDTKSG
In the case of B2, in assay [3], the binding entry is “binds”.

The record behind these values is patent US20090275521A1.
